The list shows a part of the results. Further columns of the screen follow, without active or inactive calls. Most of these compounds were active or inconclusive in the main read-out, so they are no random draw. Words in brackets tell the shape of the fitted curve; partial curves, single points and poor fits give uncertain potencies.
Assay: qHTS Assay for Modulators of Lamin A Splicing
Conditions: HeLa LMNA splicing GFP/RFP minigene ratio, 48 h
Summary of the method: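 S3 HeLa stable clones carrying a lamin A-EGFP splicing minigene plus DsRed2 were seeded at 600 cells/well in Opti-MEM with 2% FBS, pin-dosed and incubated 48 h at 37°C. Acumen cytometry (488 nm) gave the GFP/RFP total-intensity ratio.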

[1] = measured here: RFP viability control channel
[2] = measured here: GFP splicing reporter channel

Structure (SMILES)	AC50 [1]	AC50 [2]
O=C(CC1OC(=O)c2ccccc21)NC1CCCCC1 (configuration not stated)	0.398 µM [falling, full curve, poor fit]	–
CCCCCOc1ccc(C(=O)C(c2ccccc2)N2CCOCC2)cc1 (configuration not stated)	15.8 µM [rising, partial curve]	–
Cc1cc(C)n(CCC(=O)N/N=C/c2ccc(O)cc2O)n1	28.2 µM [rising, single point]	–
COc1ccc(NC(=O)c2ccc(-c3ccccc3Cl)o2)cc1	35.5 µM [rising, single point]	–
Cc1ccc(O)c(C(=O)c2cnc3c(c2)COc2ccc(C)cc2-3)c1	12.6 µM [rising, single point]	–
Cc1ccc(NC(=S)NCc2ccc3[nH]c4c(c3c2)CCCC4)cc1	–	2.51 µM [rising, single point]
C/C=C/c1ccc(OCC(=O)OCc2csc(Nc3ccc(C)cc3)n2)c(OC)c1	2 µM [rising, partial curve]	8.91 µM [rising, partial curve, poor fit]
COc1cc(/C=N/Nc2ccc(F)cc2F)cc(OC)c1OC	0.0398 µM [rising, full curve, poor fit]	–
O=C(COC(=O)c1cc(=O)[nH]c2ccccc12)NC1CCCC1	0.00447 µM [falling, full curve, poor fit]	–
COc1cccc(C(=O)Nc2ccc(C3CC3(Cl)Cl)cc2)c1 (configuration not stated)	14.1 µM [rising, single point]	–
O=C(Nc1ccc(N2CCOCC2)nc1)c1ccc(Cl)cc1	31.6 µM [rising, single point]	–
O=C(Nc1cccc(Cl)c1)N(Cc1nc2ccccc2c(=O)[nH]1)Cc1cccs1	35.5 µM [rising, single point]	35.5 µM [rising, single point]
N=c1n(Cc2ccccc2)c2ccccc2n1CC(O)COc1ccccc1 (configuration not stated)	12.6 µM [rising, single point]	11.2 µM [rising, single point]
CCn1nc(C(=O)NNC(=O)COc2ccc(OC)cc2)c2ccccc2c1=O	0.0316 µM [rising, full curve, poor fit]	–
CC(=O)Nc1nc(-c2ccc(Br)s2)cs1	0.562 µM [rising, full curve]	4.47 µM [rising, full curve, poor fit]
c1ccc(CNc2ncnc3ccccc23)cc1	8.91 µM [rising, partial curve]	12.6 µM [rising, partial curve]
CCCn1c(SCC(=O)N2c3ccccc3Sc3ccccc32)nc2ccccc21	25.1 µM [rising, single point]	–

Taken from above for reference:
Structure (SMILES)	AC50 [1]	AC50 [2]
COc1cccc(C(=O)Nc2ccc(C3CC3(Cl)Cl)cc2)c1 (configuration not stated)	14.1 µM [rising, single point]	–
O=C(Nc1ccc(N2CCOCC2)nc1)c1ccc(Cl)cc1	31.6 µM [rising, single point]	–
O=C(Nc1cccc(Cl)c1)N(Cc1nc2ccccc2c(=O)[nH]1)Cc1cccs1	35.5 µM [rising, single point]	35.5 µM [rising, single point]
N=c1n(Cc2ccccc2)c2ccccc2n1CC(O)COc1ccccc1 (configuration not stated)	12.6 µM [rising, single point]	11.2 µM [rising, single point]

Reference: PubChem BioAssay AID1487 (National Center for Advancing Translational Sciences (NCATS), 2009)
